In the supplement of paper PMC10849652:
The list shows a part of the results.

Protein sequences, listed by entry. Tags and fused reporters are not part of them. Lines headed by an entry give the natural chain unless they say otherwise; changes in a name come on top.
UniProt A6ND36: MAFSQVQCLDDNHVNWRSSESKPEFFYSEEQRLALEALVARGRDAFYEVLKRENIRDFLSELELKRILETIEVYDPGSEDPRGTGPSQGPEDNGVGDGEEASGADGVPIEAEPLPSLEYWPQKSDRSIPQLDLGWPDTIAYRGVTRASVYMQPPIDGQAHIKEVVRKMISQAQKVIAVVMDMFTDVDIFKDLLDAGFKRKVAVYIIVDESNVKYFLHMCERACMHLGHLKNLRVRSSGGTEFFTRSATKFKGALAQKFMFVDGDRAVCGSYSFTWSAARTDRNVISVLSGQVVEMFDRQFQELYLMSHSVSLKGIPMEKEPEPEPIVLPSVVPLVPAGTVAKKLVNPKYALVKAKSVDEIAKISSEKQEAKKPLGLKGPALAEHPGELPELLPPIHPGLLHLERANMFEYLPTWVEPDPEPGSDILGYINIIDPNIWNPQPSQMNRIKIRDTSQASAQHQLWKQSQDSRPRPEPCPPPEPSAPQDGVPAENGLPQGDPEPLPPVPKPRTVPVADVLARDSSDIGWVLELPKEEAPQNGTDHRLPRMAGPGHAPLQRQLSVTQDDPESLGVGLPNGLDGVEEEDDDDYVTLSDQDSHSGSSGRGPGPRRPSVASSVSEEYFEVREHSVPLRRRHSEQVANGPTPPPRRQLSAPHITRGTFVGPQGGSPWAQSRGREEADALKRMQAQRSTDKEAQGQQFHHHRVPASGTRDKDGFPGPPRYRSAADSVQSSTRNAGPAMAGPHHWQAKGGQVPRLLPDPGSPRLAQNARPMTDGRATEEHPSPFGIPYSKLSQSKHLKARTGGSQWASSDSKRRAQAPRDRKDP
UniProt Q17RN3: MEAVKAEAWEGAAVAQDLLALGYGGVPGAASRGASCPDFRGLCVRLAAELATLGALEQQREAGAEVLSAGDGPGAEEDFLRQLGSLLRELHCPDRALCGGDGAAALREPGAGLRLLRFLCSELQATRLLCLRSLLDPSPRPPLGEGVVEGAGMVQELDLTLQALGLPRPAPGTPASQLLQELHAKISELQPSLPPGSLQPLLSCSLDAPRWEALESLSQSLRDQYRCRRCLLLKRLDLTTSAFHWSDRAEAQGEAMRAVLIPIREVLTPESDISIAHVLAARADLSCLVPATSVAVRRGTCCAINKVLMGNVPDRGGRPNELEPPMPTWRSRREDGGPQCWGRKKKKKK
UniProt P16591: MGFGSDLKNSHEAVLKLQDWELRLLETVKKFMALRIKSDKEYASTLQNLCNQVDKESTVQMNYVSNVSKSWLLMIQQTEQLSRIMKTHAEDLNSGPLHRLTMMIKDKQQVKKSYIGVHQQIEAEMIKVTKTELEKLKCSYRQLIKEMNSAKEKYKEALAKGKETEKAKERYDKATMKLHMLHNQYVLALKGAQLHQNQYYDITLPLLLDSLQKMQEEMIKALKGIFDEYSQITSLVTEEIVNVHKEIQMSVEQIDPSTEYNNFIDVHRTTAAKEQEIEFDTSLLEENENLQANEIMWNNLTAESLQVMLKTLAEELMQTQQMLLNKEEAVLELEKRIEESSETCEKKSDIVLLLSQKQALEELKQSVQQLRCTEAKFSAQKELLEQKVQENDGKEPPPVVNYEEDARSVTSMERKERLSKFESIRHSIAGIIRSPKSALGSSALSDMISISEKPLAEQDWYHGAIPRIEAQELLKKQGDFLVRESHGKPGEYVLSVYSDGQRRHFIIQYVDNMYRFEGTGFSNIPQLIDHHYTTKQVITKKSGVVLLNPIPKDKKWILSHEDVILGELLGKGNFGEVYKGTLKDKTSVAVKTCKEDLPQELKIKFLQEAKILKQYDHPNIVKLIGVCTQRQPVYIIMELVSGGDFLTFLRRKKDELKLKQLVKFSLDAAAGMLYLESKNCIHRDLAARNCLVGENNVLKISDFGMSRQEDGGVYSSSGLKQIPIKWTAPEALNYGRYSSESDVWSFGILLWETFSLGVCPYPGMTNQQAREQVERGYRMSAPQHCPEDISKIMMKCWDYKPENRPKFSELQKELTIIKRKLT
UniProt Q13045: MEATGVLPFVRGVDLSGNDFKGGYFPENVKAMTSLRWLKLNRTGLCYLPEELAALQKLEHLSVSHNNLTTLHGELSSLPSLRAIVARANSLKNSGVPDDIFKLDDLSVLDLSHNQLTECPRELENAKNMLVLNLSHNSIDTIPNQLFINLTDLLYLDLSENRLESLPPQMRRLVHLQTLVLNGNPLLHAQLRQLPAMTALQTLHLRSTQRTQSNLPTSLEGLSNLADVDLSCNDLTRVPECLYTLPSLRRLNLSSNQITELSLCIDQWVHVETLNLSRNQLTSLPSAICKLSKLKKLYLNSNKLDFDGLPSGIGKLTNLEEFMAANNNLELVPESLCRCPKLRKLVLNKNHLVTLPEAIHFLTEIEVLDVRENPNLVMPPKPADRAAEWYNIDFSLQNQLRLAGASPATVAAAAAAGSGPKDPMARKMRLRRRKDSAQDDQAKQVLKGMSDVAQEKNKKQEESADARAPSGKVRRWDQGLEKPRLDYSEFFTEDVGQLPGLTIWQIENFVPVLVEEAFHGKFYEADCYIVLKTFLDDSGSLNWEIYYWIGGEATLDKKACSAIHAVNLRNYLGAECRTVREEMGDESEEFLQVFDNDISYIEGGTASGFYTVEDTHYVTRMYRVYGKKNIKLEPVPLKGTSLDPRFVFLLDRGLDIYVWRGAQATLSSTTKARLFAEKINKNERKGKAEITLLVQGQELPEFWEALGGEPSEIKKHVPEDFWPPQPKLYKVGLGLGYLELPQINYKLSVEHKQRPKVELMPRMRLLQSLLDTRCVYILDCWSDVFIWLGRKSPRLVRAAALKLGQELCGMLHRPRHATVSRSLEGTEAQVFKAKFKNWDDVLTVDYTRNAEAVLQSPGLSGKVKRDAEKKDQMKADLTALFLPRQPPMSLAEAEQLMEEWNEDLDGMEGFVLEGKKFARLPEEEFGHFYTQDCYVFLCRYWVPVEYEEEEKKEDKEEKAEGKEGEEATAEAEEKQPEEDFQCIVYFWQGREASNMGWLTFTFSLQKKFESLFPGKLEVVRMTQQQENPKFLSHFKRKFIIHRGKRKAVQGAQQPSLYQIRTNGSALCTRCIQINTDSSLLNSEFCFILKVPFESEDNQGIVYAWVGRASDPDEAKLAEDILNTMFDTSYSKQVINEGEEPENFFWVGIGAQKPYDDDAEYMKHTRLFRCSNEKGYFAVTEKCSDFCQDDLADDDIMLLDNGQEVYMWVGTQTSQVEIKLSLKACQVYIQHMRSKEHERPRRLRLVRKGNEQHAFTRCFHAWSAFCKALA
UniProt Q7Z6M2: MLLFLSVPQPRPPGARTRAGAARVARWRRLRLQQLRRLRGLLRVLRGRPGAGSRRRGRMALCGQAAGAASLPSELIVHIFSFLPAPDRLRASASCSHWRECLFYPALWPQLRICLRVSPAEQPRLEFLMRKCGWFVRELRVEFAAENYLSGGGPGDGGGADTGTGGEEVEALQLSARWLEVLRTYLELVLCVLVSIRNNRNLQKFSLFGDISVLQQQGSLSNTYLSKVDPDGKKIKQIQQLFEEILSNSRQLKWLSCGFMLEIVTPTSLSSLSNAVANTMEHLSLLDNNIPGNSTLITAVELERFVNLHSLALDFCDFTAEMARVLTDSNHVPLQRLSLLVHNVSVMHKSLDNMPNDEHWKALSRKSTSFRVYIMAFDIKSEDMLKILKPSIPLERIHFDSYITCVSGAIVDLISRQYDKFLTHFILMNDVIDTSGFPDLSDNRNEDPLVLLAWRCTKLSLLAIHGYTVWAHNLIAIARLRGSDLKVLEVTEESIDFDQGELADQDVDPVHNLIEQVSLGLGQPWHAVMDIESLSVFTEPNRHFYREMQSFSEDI
UniProt Q9NYF3: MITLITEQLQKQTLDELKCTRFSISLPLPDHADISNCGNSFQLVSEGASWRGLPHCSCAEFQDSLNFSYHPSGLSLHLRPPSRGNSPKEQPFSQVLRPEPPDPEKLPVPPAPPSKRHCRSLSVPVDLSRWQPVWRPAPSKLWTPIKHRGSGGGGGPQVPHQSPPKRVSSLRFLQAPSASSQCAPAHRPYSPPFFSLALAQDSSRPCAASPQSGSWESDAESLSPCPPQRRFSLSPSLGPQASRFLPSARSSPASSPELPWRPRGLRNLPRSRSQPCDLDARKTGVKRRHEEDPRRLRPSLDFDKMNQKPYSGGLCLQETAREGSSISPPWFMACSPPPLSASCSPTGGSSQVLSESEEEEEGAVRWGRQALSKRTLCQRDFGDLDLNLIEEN
UniProt Q8TF40: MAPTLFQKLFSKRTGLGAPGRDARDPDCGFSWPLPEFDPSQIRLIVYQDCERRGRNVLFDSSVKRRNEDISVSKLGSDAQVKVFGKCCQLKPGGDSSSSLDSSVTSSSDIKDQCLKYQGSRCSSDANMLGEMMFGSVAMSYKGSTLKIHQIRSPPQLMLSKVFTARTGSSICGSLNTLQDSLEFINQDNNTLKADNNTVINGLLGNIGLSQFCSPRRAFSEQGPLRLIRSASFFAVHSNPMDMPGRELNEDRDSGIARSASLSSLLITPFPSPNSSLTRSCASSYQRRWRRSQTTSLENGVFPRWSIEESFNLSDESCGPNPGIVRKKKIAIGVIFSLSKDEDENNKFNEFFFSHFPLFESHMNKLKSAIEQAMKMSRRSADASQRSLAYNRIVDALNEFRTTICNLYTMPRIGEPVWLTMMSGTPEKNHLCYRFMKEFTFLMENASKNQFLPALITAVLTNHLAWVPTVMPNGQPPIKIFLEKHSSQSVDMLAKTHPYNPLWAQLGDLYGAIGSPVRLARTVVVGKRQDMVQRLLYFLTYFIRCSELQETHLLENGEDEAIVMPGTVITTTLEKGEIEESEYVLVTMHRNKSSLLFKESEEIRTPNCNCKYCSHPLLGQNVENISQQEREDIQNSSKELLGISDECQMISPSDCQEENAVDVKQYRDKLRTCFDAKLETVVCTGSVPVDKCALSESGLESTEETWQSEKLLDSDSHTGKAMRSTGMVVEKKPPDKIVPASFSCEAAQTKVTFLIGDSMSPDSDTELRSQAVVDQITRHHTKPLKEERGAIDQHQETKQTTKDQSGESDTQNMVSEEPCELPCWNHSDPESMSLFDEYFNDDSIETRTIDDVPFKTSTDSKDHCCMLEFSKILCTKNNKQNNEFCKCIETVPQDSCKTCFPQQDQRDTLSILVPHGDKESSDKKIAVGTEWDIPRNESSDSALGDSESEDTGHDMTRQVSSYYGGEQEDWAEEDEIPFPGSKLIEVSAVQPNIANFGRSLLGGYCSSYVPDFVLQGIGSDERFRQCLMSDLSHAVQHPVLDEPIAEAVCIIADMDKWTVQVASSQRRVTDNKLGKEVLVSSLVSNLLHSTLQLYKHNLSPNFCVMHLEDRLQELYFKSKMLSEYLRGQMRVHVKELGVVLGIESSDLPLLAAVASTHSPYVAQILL
UniProt Q96C11: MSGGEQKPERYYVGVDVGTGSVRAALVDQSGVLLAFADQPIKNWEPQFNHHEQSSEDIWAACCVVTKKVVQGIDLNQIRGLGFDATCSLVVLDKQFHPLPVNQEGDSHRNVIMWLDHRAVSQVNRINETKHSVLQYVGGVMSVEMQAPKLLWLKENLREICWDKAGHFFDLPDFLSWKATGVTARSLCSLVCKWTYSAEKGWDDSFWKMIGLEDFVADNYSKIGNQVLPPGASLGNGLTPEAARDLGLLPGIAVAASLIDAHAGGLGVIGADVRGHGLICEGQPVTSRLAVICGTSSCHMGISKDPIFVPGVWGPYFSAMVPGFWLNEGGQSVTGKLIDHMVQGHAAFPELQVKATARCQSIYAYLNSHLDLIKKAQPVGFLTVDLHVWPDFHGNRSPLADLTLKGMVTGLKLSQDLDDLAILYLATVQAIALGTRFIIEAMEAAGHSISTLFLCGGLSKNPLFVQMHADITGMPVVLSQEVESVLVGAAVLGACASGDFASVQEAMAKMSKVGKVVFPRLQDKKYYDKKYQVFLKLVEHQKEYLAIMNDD
UniProt Q8TAV0: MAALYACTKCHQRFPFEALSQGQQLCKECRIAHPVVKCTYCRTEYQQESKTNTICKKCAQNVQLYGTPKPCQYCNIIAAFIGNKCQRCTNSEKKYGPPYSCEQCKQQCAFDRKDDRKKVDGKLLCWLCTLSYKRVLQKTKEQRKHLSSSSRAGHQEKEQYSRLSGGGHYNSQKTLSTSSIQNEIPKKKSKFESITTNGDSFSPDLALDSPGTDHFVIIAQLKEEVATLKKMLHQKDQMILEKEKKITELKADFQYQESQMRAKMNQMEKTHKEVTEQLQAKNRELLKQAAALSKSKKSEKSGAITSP
UniProt Q96IV6: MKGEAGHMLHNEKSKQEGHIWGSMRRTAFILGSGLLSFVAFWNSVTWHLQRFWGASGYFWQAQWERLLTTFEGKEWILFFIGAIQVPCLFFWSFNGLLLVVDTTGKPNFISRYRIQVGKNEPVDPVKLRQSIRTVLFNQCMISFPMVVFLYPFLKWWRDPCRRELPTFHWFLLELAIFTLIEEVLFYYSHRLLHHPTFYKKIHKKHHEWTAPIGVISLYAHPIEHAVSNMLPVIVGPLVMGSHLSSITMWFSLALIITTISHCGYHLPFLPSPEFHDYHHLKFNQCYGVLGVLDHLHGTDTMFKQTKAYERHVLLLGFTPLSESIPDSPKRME

Assays:
Assay in all cases: log2 fold change, soluble protein after heating vs DMSO (PISA); higher = thermal stabilisation; K562 cells, 10 uM, 30 min; active = over 0.2 and 3.5 SD of the protein, either way, in both replicates (recomputed)
[1] = compound: C[C@@H]1COCCN1C2=NC(=NC(=C2)C3(CC3)S(=O)(=O)C)C4=C5C=CNC5=CC=C4
Outline: (§1)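 K562 cells at 2×10^6 cells/mL were given 10 μM compound for 30 min. Aliquots then went through 3 min of heating across 48°C-58°C, were pooled, and were extracted in PBS with 0.5% NP-40 at 4°C, and the supernatant after 21,000xg for 90 min was quantified by TMTpro 16plex LC-MS/MS with channel sums equalised. Thermal stability relative to control samples, from duplicates, is given as log2 fold change.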

duvelisib = compound: C[C@H](Nc1ncnc2nc[nH]c12)c1cc2cccc(Cl)c2c(=O)n1-c1ccccc1 [duvelisib]
Outline: as §1

tozasertib = compound: Cc1cc(Nc2cc(N3CCN(C)CC3)nc(Sc3ccc(NC(=O)C4CC4)cc3)n2)n[nH]1 [tozasertib]
Outline: as §1

[2] = compound: Cc1cc(SCc2sc(-c3ccc(C(F)(F)F)cc3)nc2C)ccc1OCC(=O)O
Outline: as §1

[3] = compound: C[C@H](C1=CC=C(C=C1)C(=O)NC2=C3C=CNC3=NC=C2)N
Outline: as §1

gandotinib = compound: Cc1cc(Nc2cc(CN3CCOCC3)c3nc(C)c(Cc4ccc(Cl)cc4F)n3n2)n[nH]1 [gandotinib]
Outline: as §1

[4] = compound: CS(=O)(=O)c1ccc(-c2cnc(N)c(C(=O)Nc3ccccc3)n2)cc1
Outline: as §1

ispinesib = compound: Cc1ccc(C(=O)N(CCCN)[C@@H](c2nc3cc(Cl)ccc3c(=O)n2Cc2ccccc2)C(C)C)cc1 [ispinesib]
Outline: as §1

crizotinib = compound: C[C@@H](Oc1cc(-c2cnn(C3CCNCC3)c2)cnc1N)c1c(Cl)ccc(F)c1Cl [crizotinib]
Outline: as §1

doramapimod = compound: Cc1ccc(-n2nc(C(C)(C)C)cc2NC(=O)Nc2ccc(OCCN3CCOCC3)c3ccccc23)cc1 [doramapimod]
Outline: as §1

Measured: log2 fold change

FAM83G (UniProt A6ND36)
inactive: [1] -0.173 | duvelisib 0.134 | tozasertib -0.034 | [2] -0.054

FAM98C (UniProt Q17RN3)
inactive: [3] 0.288 | gandotinib 0.013

FKRP (UniProt Q9H9S5)
inactive: [4] 0.032 | [1] -0.041 | duvelisib 0.034 | gandotinib -0.052 | tozasertib -0.199 | [2] -0.074 | ispinesib -0.01

FER (UniProt P16591)
inactive: [4] -0.1 | gandotinib -0.063

FLII isoform 2 (UniProt Q13045)
inactive: [4] -0.009 | [1] -0.009 | [3] -0.047 | tozasertib -0.182 | ispinesib 0.056

FBXO33 (UniProt Q7Z6M2)
inactive: [1] 0.04

FNBP1 (UniProt Q96RU3)
inactive: duvelisib -0.101 | tozasertib -0.156 | [2] 0.408

FAT2 (UniProt Q9NYQ8)
inactive: crizotinib -0.148 | [1] 0.131 | [3] 0.306 | gandotinib -0.149 | [2] 0.121 | doramapimod 0.006 | ispinesib -0.006

FANCL isoform 2 (UniProt Q9NW38)
inactive: [3] -0.179

FHAD1 isoform 3 (UniProt B1AJZ9)
inactive: crizotinib -0.079 | [3] -0.183 | duvelisib -0.082 | gandotinib -0.105 | tozasertib -0.078 | [2] 0.054 | doramapimod -0.223 | ispinesib -0.115

FMR1NB (UniProt Q8N0W7)
inactive: [1] -0.288

FAM53C (UniProt Q9NYF3)
inactive: [4] 0.03 | [3] -0.034 | gandotinib -0.024 | tozasertib 0.144 | ispinesib -0.105

FGB (UniProt P02675)
inactive: [4] -0.113 | [3] 0.201 | gandotinib -0.117 | tozasertib 0.038 | ispinesib -0.073

FNIP1 (UniProt Q8TF40)
inactive: [1] 0.076 | [3] -0.007 | duvelisib 0.026 | gandotinib -0.055 | tozasertib -0.046 | [2] 0.063 | ispinesib -0.129

FAM222B (UniProt Q8WU58)
inactive: [1] 0.12 | duvelisib 0.13 | tozasertib -0.034 | [2] 0.053 | ispinesib -0.126

FGG (UniProt P02679)
inactive: gandotinib -0.153 | ispinesib -0.052

Taken from the results shown (2 entries):
FAM83G (UniProt A6ND36)
inactive: [1] -0.173 | duvelisib 0.134 | tozasertib -0.034 | [2] -0.054

FAM98C (UniProt Q17RN3)
inactive: [3] 0.288 | gandotinib 0.013

(further entries)

FARP2 (UniProt O94887)
inactive: [3] 0.135 | duvelisib 0.039 | tozasertib -0.021 | [2] -0.194

FAM53B (UniProt Q14153)
inactive: crizotinib -0.037 | [1] 0.023 | duvelisib -0.065 | [2] -0.028 | doramapimod 0.06 | ispinesib 0.041

FLT1 (UniProt P17948)
inactive: duvelisib -0.015 | [2] -0.043

FGGY isoform 3 (UniProt Q96C11)
inactive: crizotinib 0 | [1] -0.145 | [3] -0.125 | duvelisib 0.089 | gandotinib -0.175 | tozasertib 0.035 | [2] 0.131 | doramapimod -0.101 | ispinesib 0.067

FAM76A isoform 3 (UniProt Q8TAV0)
inactive: [4] 0.065 | [1] -0.078 | gandotinib -0.018 | tozasertib -0.087

FAM83A (UniProt Q86UY5)
inactive: [4] 0.008 | [1] -0.154 | gandotinib -0.171 | tozasertib 0.087 | ispinesib -0.16

FAXDC2 (UniProt Q96IV6)
inactive: crizotinib 0.028 | doramapimod -0.155

FBXO2 (UniProt Q9UK22)
inactive: gandotinib -0.046

FBXW11 (UniProt Q9UKB1)
inactive: crizotinib -0.174 | [3] 0.106 | duvelisib -0.149 | gandotinib 0.063 | tozasertib 0.046 | [2] -0.028 | doramapimod 0 | ispinesib -0.147

FAM219B (UniProt Q5XKK7)
inactive: [4] 0.225 | gandotinib -0.023

FBF1 isoform 6 (UniProt Q8TES7)
inactive: crizotinib 0.051 | duvelisib -0.168 | [2] 0.022 | doramapimod 0.102

FKBP10 (UniProt Q96AY3)
inactive: [4] -0.083 | gandotinib -0.067

FBXL8 (UniProt Q96CD0)
inactive: [4] -0.162 | [1] 0.099 | [3] -0.023 | tozasertib -0.165

FGFR1OP2 (UniProt Q9NVK5)
inactive: crizotinib 0.21 | [1] 0.039 | [3] 0.053 | duvelisib 0 | gandotinib -0.003 | tozasertib 0.022 | [2] -0.036 | doramapimod 0.022

FAT4 (UniProt Q6V0I7)
inactive: [4] 0.042 | gandotinib -0.213 | tozasertib -0.093 | ispinesib -0.299

FBXO9 (UniProt Q9UK97)
inactive: crizotinib 0.028 | [3] -0.046 | gandotinib -0.151 | [2] 0.079 | doramapimod -0.081 | ispinesib -0.057

FNDC3A (UniProt Q9Y2H6)
inactive: tozasertib -0.212
